Laboratory results reported in publication doi:10.1101/2025.07.21.665852.
No constants are given. Whether binding was seen depends on the method and setting. Binding seen in cells or lysates may run through a third protein. Some entries that bind do so weakly or less than the wild type. Where a sequence is shown, tags or fusion partners need not be part of it.

Molecular target: T1, Snf7-VC (yeast ESCRT-III subunit Snf7p fused to the Venus C-terminal fragment) (S. cerevisiae), P39929
T1 chain: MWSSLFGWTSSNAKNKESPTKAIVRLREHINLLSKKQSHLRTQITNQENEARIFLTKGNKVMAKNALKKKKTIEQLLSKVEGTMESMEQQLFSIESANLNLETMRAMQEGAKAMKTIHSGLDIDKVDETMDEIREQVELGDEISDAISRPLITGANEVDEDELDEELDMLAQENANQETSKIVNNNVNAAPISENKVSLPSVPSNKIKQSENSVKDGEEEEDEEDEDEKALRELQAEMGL
Experiment: split reporter
Conditions: remark: other sources report otherwise

B1: Vps2-VN (yeast ESCRT-III subunit Vps2p fused to the Venus N-terminal fragment), P36108 1-232 (protein)
chain: MSLFEWVFGKNVTPQERLKKNQRALERTQRELEREKRKLELQDKKLVSEIKKSAKNGQVAAAKVQAKDLVRTRNYIQKFDNMKAQLQAISLRIQAVRSSDQMTRSMSEATGLLAGMNRTMNLPQLQRISMEFEKQSDLMGQRQEFMDEAIDNVMGDEVDEDEEADEIVNKVLDEIGVDLNSQLQSTPQNLVSNAPIAETAMGIPEPIGAGSEFHGNPDDDLQARLNTLKKQT
binding: binds
